Test results: article PMC8110956, “An infection-induced RhoB-Beclin 1-Hsp90 complex enhances clearance of uropathogenic Escherichia coli” (Nature Communications, 2021)
No constants are given. Whether binding was seen depends on the method and setting. Binding seen in cells or lysates may run through a third protein. Some results given as binding are weak or reduced against the parent protein; the word gives no strength. Values belong to the substance of their own block, whether it stands above or below them.

Amino acid sequences for entries named in this document (tags omitted). A change or cut given only in a name is not applied to a line headed by its entry. Residues count along the entry.
UniProt P62745: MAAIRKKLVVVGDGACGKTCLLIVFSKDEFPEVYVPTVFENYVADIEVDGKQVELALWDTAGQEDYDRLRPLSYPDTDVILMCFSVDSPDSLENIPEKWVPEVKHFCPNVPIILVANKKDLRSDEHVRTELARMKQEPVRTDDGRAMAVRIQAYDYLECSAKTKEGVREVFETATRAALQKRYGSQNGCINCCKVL
3×FLAG-RhoB (89–196): residues 89-196 of P62745
3×FLAG-RhoB (118–196): residues 118-196 of P62745
UniProt Q14457: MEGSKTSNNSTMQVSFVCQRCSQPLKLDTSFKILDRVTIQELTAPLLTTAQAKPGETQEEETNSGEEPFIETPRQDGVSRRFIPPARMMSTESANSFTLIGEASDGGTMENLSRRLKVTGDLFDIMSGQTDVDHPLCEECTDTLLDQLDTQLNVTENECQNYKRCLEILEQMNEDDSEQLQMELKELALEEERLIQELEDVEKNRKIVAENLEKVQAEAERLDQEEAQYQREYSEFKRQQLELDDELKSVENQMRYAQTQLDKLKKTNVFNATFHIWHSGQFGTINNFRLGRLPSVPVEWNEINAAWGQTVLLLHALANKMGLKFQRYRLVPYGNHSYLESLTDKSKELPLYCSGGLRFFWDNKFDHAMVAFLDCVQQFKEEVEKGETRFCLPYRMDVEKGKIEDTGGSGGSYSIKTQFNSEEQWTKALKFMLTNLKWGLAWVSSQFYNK

Legend:
[1] = target: endogenous RhoB (5637 bladder epithelial cells) (human (endogenous in 5637)) (UniProt P62745); assay: co-IP; endogenous proteins of 5637 bladder epithelial cells treated with LPS for 2 h or infected by CFT073; lysate with anti-RhoB, anti-Beclin 1 or IgG overnight at 4 °C, Protein A/G beads; western blot
[2] = target: 3×FLAG-RhoB (89–196) (human) (UniProt P62745); assay: co-IP; HEK293 co-transfected with MYC-Beclin 1 and FLAG- or 3×FLAG-RhoB constructs, 48 h; lysate (50 mM Tris-HCl pH 7.4, 150 mM NaCl, 1% NP-40) on anti-FLAG or anti-c-MYC beads overnight at 4 °C, eluted with 3×FLAG or c-MYC peptide; western blot
[3] = target: 3×FLAG-RhoB (118–196) (human) (UniProt P62745); assay: as above
[4] = target: endogenous Beclin 1 (5637 bladder epithelial cells) (human (endogenous in 5637)) (UniProt Q14457); assay: co-IP; endogenous proteins of 5637 bladder epithelial cells treated with LPS for 2 h or infected by CFT073; lysate with anti-RhoB, anti-Beclin 1 or IgG overnight at 4 °C, Protein A/G beads; western blot

binding [1]: binds
Substance: endogenous Beclin 1 (5637 bladder epithelial cells) (from UniProt Q14457 1-450)

binding [2]: binds | binding [3]: binds
Substance: MYC-tagged Beclin 1 (from UniProt Q14457 1-450)

binding [4]: binds
Substance: endogenous RhoB (5637 bladder epithelial cells) (from UniProt P62745 1-196)
